Data as given in patent US20250122298A1.
Positions count from the first letter of the chain named. No constants are given. Whether binding was seen depends on the method and setting. Some entries that bind do so weakly or less than the wild type. Blank lines part the entries; values can stand above or below the binder they belong to.

Columns and labels:
[1] = target: recombinant cynomolgus TfR-1 (cynomolgus); test: ELISA, plate-coated TfR-1, Fc fusions, anti-hFc HRP detection
[2] = target: recombinant human TfR-1 (human) (UniProt P02786); test: as above
[3] = target: recombinant human TfR-1 (human) (UniProt P02786); test: ELISA on coated hTfR1
[4] = target: recombinant human TfR-1 (human) (UniProt P02786); test: ELISA on coated hTfR1, crude ExpiHEK expression media, normalised to TXP1
[5] = target: recombinant human TfR-1 (human) (UniProt P02786); test: grade from expression level and hTfR1 binding ELISA of crude media (P preferred, A active, I inactive)
[6] = target: recombinant cynomolgus TfR-1 (cynomolgus); test: ELISA, plate-coated recombinant TfR1
[7] = target: recombinant human TfR-1 (human) (UniProt P02786); test: ELISA, plate-coated recombinant TfR1

- binding [1]: binds
- binding [2]: binds
B1: R2D4 (Fc fusion, not shown: a dimerising Fc or GST)
chain: ARVDQTPQTATKETGESLTINCVLRDSNCALSSTYWYRKKSGSTNEENISKGGRKYVETVESGSKSFSLKINDLTVEDSGTYRCNVVGTWCMSWRDVSGDGTVVTVNA

- binding [1]: binds
B2: R2D1 (Fc fusion, not shown: a dimerising Fc or GST)
chain: ARVDQTPQTATKETGESLTINCVLRDSNCALSSTYWYRKKSGSTNEENISKGGRYVETVDSGTKSFSLKINDLTVEDSGTYRCNVVGTWCMSWRDVSGDGTVVTVNA

- binding [3]: binds
- binding [4]: binds
- binding [5]: binds
B3: TXP1D5 (Fc fusion, not shown: a dimerising Fc or GST)
chain: B2 chain with R54K, D60Q, T63S

- binding [5]: binds
B4: TXP1-R2-10 (Fc fusion, not shown: a dimerising Fc or GST)
chain: B2 chain with A10I, R54K, D60Q, T63S, S97Y, D99G, V102A

- binding [5]: binds
B5: TXP1-R2-9 (Fc fusion, not shown: a dimerising Fc or GST)
chain: B2 chain with A10I, R54K, D60E, T63S, S97Y, D99G, V102A

- binding [6]: binds
B6: TXP1D1 (Fc fusion, not shown: a dimerising Fc or GST)
chain: B2 chain

- binding [6]: binds
- binding [7]: binds
- binding [4]: binds
- binding [5]: binds
B7: TXP1D4 (Fc fusion, not shown: a dimerising Fc or GST)
chain: B2 chain with R54K, D60E, T63S
